In publication PMC11623946:
These are yes or no findings as the source states them, for the method shown. In cells and extracts the contact can be indirect. Some entries that bind do so weakly or less than the wild type.

Experiments:
[1] = target: T1, ASCL1 (human (endogenous in NCI-H660)), P50553; experiment: co-IP; NCI-H660 lysate (IP Lysis Buffer), 1,000 ug protein, ASCL1 antibody with Protein A+G magnetic beads overnight at 4 C; normal mouse IgG as isotype control; blot for ASCL1 and FOXA2; details: remark: other sources report otherwise
T1 chain: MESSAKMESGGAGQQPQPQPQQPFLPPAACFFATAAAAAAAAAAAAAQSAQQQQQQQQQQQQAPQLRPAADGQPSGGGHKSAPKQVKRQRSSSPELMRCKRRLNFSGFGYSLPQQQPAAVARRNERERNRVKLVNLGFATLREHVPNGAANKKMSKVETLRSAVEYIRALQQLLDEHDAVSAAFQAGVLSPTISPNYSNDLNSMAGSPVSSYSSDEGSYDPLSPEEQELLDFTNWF

[2] = target: T1, ASCL1 (human (endogenous in NCI-H660)), …; experiment: proximity ligation; NCI-H660 cells fixed with 4% paraformaldehyde, permeabilised; FOXA2 (rabbit) and ASCL1 (mouse) antibodies, Duolink In Situ Detection Reagents Red; proximity <40 nm; details: remark: other sources report otherwise

B1: FOXA2, Q9Y261 1-457 (protein)
chain: MLGAVKMEGHEPSDWSSYYAEPEGYSSVSNMNAGLGMNGMNTYMSMSAAAMGSGSGNMSAGSMNMSSYVGAGMSPSLAGMSPGAGAMAGMGGSAGAAGVAGMGPHLSPSLSPLGGQAAGAMGGLAPYANMNSMSPMYGQAGLSRARDPKTYRRSYTHAKPPYSYISLITMAIQQSPNKMLTLSEIYQWIMDLFPFYRQNQQRWQNSIRHSLSFNDCFLKVPRSPDKPGKGSFWTLHPDSGNMFENGCYLRRQKRFKCEKQLALKEAAGAAGSGKKAAAGAQASQAQLGEAAGPASETPAGTESPHSSASPCQEHKRGGLGELKGTPAAALSPPEPAPSPGQQQQAAAHLLGPPHHPGLPPEAHLKPEHHYAFNHPFSINNLMSSEQQHHHSHHHHQPHKMDLKAYEQVMHYPGYGSPMPGSLAMGPVTNKTGLDASPLAADTSYYQGVYSRPIMNSS
binding [1]: binds | binding [2]: binds
